Laboratory results: patent publication US4009166A, “Pyrido(2,3-d) pyrimidinones” (Hisamitsu Pharmaceutical Co., Inc., priority 1974, dated 1977)

Test system: dd-strain male mice
Details: deaths 72 hours after administration
Procedure: The lethal dose was estimated from the death of animals 72 hours after administration.

For `CN1C(=O)CN=C(c2ccccc2)c2cc(Cl)ccc21` [diazepam, reference compound], the “acute toxicity i.p. (lethal dose)” value was 300 to 1000 mg/kg.
